Read-outs that look alike come from different tables or passages of the source. At least one compound was matched to its structure with a doubt left. Peptide text beside a SMILES is read from it.
Molecular target: T1, ED-B (Homo sapiens, UniProt P02751)
T1 construct: Biopanning on ED-B domain
Test: SPR (BIAcore) binding strength assay on immobilized biotin-EDB
Protocol: The bipodal peptide binder found from BPB2EDB, BPB3EDB, and BPB4EDB maturation libraries were synthesized (Anygen, Korea). The affinity measurement was conducted using BIAcore X (Biacore AB, Uppsala, Sweden). 2,000 RU of biotin-EDB was allowed to flow on the streptavidin SA chip (Biacore) for immobilization. PBS (pH 7.4) was used as a running buffer, and kinetics at different concentrations was measured under a flow rate of 30 μl per minute. The affinity was calculated using BlAevaluation software (Biacore AB, Uppsala, Sweden).

By UniProt entry, the sequences of proteins in these tests, tags left out. Residues count along the entry.
UniProt P02751, 1271-1359 limits assumed: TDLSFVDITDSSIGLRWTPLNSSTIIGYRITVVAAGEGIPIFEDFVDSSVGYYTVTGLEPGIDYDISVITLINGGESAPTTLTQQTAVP

[1] = SPR Biacore, biotin-EDB on SA chip, PBS pH 7.4, read-out: KD value
[2] = SPR, target binding kinetics, read-out: KD = Koff/Kon

Kd [1] [nM]	Kd [2] [nM]	Compound
5.7	5.7	CC[C@H](C)[C@H](NC(=O)CNC(=O)[C@H](CCCCN)NC(=O)[C@H](Cc1c[nH]c2ccccc12)NC(=O)[C@@H](NC(=O)[C@H](Cc1c[nH]c2ccccc12)NC(=O)[C@H](CCCCN)NC(=O)CNC(=O)[C@H](CC(N)=O)NC(=O)[C@H](CCC(=O)O)NC(=O)[C@H](Cc1c[nH]c2ccccc12)NC(=O)[C@@H](NC(=O)[C@H](Cc1c[nH]c2ccccc12)NC(=O)[C@H](CO)NC(=O)CNC(=O)[C@H](CCC(N)=O)NC(=O)[C@@H](NC(=O)[C@@H]1CCCN1C(=O)[C@H](CO)NC(=O)[C@H](CO)NC(=O)[C@H](CS)NC(=O)[C@@H](N)Cc1c[nH]c2ccccc12)[C@@H](C)CC)[C@@H](C)O)[C@@H](C)O)C(=O)N[C@H](C(=O)N[C@@H](CCCNC(=N)N)C(=O)N[C@@H](CC(C)C)C(=O)N[C@@H](CCC(=O)O)C(=O)N[C@@H](CCC(N)=O)C(=O)N[C@@H](CCC(N)=O)C(=O)O)[C@@H](C)CC [BPB3EDB] (H-WCSSPIQGSWTWENGKWTWKGIIRLEQQ-OH; N-terminus and C-terminus assumed)
3.5	3.5	CC[C@H](C)[C@H](NC(=O)CNC(=O)[C@H](CCCCN)NC(=O)[C@H](Cc1c[nH]c2ccccc12)NC(=O)[C@@H](NC(=O)[C@H](Cc1c[nH]c2ccccc12)NC(=O)[C@H](CCCCN)NC(=O)CNC(=O)[C@H](CC(N)=O)NC(=O)[C@H](CCC(=O)O)NC(=O)[C@H](Cc1c[nH]c2ccccc12)NC(=O)[C@@H](NC(=O)[C@H](Cc1c[nH]c2ccccc12)NC(=O)[C@H](CO)NC(=O)CNC(=O)[C@H](CCC(N)=O)NC(=O)[C@@H](NC(=O)[C@@H]1CCCN1C(=O)[C@H](CO)NC(=O)[C@H](CO)NC(=O)[C@H](CS)NC(=O)[C@H](CO)NC(=O)[C@@H](N)Cc1c[nH]cn1)[C@@H](C)CC)[C@@H](C)O)[C@@H](C)O)C(=O)N[C@H](C(=O)N[C@@H](CCCNC(=N)N)C(=O)N[C@@H](CC(C)C)C(=O)N[C@@H](CCC(=O)O)C(=O)N[C@@H](CCC(N)=O)C(=O)N[C@@H](CCC(N)=O)C(=O)N1CCC[C@H]1C(=O)O)[C@@H](C)CC [BPB4EDB] (H-HSCSSPIQGSWTWENGKWTWKGIIRLEQQP-OH; N-terminus and C-terminus assumed)

From patent US20150330991A1, “METHOD FOR IMPROVING TARGET AFFINITY OF PEPTIDE” (GWANGJU INSTITUTE OF SCIENCE AND TECHNOLOGY, priority 2012, published 2015)
